Reference: patent US5821219A (priority 1995, dated 1998)
Not every detail of the peptide structures is certain; ends, links or a residue may be inferred.

Legend:
mice [1] = test: Morphine hypothermia and Straub tail in DBA/2J mice
mice [2] = test: Reversal of morphine analgesia, 49° C. tail withdrawal latency; format: in vivo, mouse; conditions: icv in a 2.5 μl volume; 5 mg/kg morphine; linear regression
mice [3] = test: Acetic acid abdominal constriction (writhing) test; format: in vivo, mouse
Protocol: The AC assay was a modification of the technique originally described by Koster et al. Mice (N=9-15 per group) were acclimated to individual cylindrical Plexiglass observation chambers for >30 minutes. […] A separate group of Sal-treated mice received no icv injection (None). Between 5 and 10 minutes later, all mice were given an intraperitoneal (ip) injection of 0.9% acetic acid and placed back in their observation chambers. For the next 30 minutes, the number of abdominal constrictions (lengthwise stretches of the torso with a concomitant concave arching of the back) were counted and recorded. Four mice in separate chambers were observed simultaneously by a single experimenter blind to drug condition.

CC(C)C[C@H](NC(=O)[C@H](CCCCN)NC(=O)[C@H](CCCNC(=N)N)NC(=O)[C@H](C)NC(=O)[C@H](CO)NC(=O)[C@H](CCCCN)NC(=O)[C@H](CCCNC(=N)N)NC(=O)[C@H](C)NC(=O)CNC(=O)[C@@H](NC(=O)[C@H](Cc1ccccc1)NC(=O)CNC(=O)CNC(=O)[C@@H](N)Cc1ccccc1)[C@@H](C)O)C(=O)N[C@@H](C)C(=O)N[C@@H](CC(N)=O)C(=O)N[C@@H](CCC(N)=O)C(=O)O [orphanin FQ]
reversal of morphine hypothermia (mice [1]; 5 or 10 nmole OFQ icv, 20 mg/kg MOR, 60-90 minutes post-MOR, p<0.001): significantly reversed
effect on body temperature of OFQ itself (mice [1]; OFQ icv without morphine): did not affect body temperature
elimination of morphine Straub tail (mice [1]; at least 5 nmole OFQ icv, within 1-2 minutes): effectively eliminated Straub tail in the vast majority of animals
ED50, dose causing 50% inhibition of morphine analgesia (mice [2]): 7.5 nmol
decreased number of abdominal constrictions due to SIA (mice [3]; 2.5 nmole OFQ icv in 2.5 μl vehicle): reversed
inhibition of the analgesic effect of morphine (mice [3]; 2.5 nmole icv, within 30 minutes after OFQ): pharmaceutically sufficient to inhibit the analgesic effect of morphine
